Measured values taken from paper PMC8051072.
No constants are given. Whether binding was seen depends on the method and setting. For some of these results: In cells and extracts the contact can be indirect. Some entries that bind do so weakly or less than the wild type. For some of these results: Tags and fused reporters may be left off the sequences shown.

By UniProt entry, the sequences of proteins in these tests, tags left out.
UniProt P25054: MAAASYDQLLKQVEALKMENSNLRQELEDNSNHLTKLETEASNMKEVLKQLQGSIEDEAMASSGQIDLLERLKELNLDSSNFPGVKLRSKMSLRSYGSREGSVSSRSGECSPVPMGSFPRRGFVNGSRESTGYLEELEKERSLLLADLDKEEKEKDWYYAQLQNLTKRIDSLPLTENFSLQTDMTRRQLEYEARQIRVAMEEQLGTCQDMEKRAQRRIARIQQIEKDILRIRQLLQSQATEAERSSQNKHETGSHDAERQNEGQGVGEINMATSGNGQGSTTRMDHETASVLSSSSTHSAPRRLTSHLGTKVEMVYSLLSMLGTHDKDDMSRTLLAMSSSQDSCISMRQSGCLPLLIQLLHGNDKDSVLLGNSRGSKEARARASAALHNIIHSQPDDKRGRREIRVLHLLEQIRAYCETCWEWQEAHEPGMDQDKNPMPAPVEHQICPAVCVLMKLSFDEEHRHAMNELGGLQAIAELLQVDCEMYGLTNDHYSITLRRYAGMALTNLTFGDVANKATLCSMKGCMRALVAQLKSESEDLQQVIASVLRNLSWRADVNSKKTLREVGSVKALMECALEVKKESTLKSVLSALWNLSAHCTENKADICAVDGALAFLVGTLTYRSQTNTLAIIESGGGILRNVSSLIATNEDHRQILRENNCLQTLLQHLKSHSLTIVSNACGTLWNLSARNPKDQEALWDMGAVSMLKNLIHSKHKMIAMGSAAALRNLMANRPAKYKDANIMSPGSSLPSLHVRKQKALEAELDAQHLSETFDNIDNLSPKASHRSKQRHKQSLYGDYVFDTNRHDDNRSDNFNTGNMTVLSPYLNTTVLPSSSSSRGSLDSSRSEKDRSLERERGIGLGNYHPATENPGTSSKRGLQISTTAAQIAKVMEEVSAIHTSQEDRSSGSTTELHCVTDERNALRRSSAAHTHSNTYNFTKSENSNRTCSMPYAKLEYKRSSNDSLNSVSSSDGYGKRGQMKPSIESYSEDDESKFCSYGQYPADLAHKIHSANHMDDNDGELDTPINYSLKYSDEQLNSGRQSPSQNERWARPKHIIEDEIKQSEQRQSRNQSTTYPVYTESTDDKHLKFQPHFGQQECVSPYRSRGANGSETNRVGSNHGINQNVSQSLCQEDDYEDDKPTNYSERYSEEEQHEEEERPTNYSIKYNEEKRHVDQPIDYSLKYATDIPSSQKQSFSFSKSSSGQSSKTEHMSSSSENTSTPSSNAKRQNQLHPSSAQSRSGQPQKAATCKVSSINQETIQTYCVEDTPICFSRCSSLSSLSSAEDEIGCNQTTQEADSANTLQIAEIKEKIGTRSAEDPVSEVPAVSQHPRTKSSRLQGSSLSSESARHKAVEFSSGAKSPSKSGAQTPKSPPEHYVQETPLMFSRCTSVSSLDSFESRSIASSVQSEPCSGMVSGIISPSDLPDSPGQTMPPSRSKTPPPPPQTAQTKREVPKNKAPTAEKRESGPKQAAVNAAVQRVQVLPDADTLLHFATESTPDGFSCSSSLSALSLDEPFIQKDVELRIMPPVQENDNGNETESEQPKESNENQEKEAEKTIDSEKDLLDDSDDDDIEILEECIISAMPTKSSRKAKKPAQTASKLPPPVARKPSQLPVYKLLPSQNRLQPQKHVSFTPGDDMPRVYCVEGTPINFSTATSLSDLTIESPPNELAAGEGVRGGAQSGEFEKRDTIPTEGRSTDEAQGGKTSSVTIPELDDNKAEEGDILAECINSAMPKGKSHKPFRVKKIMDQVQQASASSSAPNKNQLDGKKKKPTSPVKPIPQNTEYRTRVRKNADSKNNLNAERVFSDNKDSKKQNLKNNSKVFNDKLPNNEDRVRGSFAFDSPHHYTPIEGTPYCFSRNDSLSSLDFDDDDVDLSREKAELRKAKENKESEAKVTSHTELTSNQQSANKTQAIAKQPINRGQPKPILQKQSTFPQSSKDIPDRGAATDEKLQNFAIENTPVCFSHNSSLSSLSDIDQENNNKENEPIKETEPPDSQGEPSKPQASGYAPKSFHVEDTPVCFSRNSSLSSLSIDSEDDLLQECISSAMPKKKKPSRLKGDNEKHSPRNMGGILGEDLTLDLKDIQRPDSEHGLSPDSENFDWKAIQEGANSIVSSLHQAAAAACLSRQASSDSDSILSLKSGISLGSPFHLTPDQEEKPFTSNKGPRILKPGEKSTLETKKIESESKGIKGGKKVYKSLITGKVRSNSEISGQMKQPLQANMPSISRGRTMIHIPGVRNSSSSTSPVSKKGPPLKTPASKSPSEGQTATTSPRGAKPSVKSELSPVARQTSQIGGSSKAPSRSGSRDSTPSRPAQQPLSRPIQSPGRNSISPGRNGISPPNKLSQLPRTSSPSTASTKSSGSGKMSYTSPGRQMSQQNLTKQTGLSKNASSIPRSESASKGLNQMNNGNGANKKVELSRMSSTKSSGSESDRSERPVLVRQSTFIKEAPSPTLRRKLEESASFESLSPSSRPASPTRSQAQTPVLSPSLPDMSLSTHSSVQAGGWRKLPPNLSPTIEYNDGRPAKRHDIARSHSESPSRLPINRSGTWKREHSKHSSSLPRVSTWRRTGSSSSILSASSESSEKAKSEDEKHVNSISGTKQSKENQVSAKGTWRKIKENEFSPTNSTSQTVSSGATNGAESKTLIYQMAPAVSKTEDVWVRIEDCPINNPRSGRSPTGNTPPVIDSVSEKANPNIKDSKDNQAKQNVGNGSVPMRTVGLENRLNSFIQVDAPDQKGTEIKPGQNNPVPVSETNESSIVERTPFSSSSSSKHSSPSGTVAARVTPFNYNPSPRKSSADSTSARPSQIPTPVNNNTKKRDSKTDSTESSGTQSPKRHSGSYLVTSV
UniProt P35222: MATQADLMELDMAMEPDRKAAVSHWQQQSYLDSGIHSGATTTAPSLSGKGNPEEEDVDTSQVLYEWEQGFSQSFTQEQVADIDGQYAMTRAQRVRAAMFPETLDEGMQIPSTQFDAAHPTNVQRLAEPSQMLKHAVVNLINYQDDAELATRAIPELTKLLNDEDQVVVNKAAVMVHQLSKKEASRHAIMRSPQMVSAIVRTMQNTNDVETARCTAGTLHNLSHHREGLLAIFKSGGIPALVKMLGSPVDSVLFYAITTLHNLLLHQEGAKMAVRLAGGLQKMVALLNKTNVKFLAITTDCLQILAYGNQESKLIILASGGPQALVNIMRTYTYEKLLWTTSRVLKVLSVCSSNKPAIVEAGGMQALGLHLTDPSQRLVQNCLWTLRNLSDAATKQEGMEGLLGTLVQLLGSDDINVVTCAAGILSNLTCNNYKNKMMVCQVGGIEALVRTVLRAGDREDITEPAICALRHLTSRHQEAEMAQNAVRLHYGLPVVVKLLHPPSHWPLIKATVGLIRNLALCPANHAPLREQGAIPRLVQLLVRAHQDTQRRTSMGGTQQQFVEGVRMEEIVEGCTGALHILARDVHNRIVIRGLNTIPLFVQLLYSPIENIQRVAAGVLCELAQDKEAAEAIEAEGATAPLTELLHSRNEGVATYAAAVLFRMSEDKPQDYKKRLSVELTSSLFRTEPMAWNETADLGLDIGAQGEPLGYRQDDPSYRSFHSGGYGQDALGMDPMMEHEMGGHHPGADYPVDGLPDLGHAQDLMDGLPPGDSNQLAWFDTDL
UniProt O15169: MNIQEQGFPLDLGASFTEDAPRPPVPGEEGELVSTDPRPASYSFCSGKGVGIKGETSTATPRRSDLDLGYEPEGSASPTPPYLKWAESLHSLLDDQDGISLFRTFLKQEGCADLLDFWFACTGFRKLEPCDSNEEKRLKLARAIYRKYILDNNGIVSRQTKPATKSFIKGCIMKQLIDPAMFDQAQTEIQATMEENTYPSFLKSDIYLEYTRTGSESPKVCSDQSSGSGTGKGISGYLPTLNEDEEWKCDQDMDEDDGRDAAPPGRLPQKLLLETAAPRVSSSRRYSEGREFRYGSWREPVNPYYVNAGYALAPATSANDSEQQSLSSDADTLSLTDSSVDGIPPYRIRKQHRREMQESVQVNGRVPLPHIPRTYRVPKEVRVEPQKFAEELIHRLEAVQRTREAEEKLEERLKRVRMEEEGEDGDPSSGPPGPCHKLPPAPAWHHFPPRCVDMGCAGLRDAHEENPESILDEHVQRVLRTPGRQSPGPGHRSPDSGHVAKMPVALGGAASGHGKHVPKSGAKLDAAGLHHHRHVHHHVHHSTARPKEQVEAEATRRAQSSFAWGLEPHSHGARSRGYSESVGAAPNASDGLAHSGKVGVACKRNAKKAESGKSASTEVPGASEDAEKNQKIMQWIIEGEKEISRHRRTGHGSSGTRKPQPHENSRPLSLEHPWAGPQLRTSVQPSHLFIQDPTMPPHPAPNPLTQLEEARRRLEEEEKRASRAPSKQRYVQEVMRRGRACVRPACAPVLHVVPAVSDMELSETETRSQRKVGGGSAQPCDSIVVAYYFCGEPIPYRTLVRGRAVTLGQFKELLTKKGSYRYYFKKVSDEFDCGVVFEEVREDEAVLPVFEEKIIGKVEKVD

Columns and labels:
[1] = molecular target: APC (wild-type, endogenous in RKO cells) (human (endogenous in RKO)) (UniProt P25054); assay: co-IP; anti-APC antibody; lysates of DLD1 cells, or of RKO cells cultured with Wnt3a medium, transfected with Flag-Sec62 or Flag vector; Buffer A, antibody on protein A-Sepharose, 2 h at 4 °C
[2] = molecular target: β-catenin (endogenous) (human (endogenous in DLD1 and HT29)) (UniProt P35222); assay: co-IP; anti-β-catenin antibody; lysates of HT29 or DLD1 cells transfected with Flag-Sec62 or its mutants, or of Sec62-depleted and control cells; Buffer A, antibody on protein A-Sepharose, 2 h at 4 °C
GST-Sec62 = molecular target: T1, GST-Sec62 (UniProt Q99442); assay: pull-down; GST pull-down with GST-Sec62, its deletion mutants or GST-Sec62 DA and His-β-catenin; both purified
T1 sequence: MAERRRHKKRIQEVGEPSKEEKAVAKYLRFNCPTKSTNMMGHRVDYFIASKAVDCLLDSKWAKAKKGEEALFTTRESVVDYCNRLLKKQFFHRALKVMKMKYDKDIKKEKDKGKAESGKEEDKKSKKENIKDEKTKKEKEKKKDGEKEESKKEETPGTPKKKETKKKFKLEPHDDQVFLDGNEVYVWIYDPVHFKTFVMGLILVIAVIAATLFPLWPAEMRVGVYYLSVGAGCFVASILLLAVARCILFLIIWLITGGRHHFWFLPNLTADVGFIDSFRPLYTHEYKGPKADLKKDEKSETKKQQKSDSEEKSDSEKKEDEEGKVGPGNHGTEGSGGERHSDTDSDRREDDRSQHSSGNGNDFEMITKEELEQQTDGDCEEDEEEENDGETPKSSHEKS

[3] = molecular target: T2, Sec62 (endogenous) (human (endogenous in DLD1)) (UniProt Q99442); assay: co-IP; endogenous proteins; DLD1 lysates immunoprecipitated with anti-Sec62 or anti-β-catenin antibody; Buffer A (25 mM Tris-Cl pH 7.5, 150 mM KCl, 1 mM DTT, 2 mM EDTA, 0.5 mM PMSF, 0.2% Nonidet P-40), antibody on protein A-Sepharose, 2 h at 4 °C
T2 sequence: T1 sequence

AXIN1 (from UniProt O15169 1-862)
binding [1]: binds | binding [2]: binds

His-β-catenin (from UniProt P35222 1-781)
binding (GST-Sec62): binds

β-catenin (endogenous) (from UniProt P35222 1-781)
binding [3]: binds
